These are yes or no findings as the source states them, for the method shown. In cells and extracts the contact can be indirect. Some binding calls cover weakened binding; strength is not graded here.
Target: T1, Ataxin-2-like (ATXN2L) (mouse (endogenous in MEF)) (UniProt Q7TQH0)
T1 sequence: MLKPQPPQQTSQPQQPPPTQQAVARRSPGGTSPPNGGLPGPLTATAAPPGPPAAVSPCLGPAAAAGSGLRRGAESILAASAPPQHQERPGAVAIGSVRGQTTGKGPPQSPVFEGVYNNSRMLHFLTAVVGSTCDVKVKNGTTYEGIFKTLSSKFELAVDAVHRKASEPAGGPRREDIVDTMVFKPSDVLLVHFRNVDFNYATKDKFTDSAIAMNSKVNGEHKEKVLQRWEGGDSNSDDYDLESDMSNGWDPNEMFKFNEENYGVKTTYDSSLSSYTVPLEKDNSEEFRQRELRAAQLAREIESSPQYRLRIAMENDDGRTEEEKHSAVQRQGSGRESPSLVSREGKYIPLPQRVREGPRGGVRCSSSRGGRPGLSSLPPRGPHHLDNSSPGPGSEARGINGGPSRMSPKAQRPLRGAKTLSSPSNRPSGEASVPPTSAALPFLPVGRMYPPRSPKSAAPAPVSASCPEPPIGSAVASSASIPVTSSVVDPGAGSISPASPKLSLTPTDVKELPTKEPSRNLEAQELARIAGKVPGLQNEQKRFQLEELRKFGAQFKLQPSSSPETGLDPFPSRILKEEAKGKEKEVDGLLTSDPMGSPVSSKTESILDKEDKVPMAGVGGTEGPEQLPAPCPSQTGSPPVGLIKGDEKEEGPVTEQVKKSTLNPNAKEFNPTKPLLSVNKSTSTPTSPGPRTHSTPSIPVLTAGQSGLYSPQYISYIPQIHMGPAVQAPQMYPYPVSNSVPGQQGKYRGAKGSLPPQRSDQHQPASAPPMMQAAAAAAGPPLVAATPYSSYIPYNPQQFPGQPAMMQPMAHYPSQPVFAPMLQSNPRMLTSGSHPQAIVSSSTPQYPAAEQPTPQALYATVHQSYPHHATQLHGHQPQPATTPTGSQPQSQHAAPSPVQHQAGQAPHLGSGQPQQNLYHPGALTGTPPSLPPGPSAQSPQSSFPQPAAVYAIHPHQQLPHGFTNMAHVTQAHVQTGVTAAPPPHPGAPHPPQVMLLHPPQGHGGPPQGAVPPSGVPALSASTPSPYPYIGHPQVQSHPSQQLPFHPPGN
Assay: co-IP

The chains behind the UniProt entries cited, without tags or fusion partners.
UniProt P29341: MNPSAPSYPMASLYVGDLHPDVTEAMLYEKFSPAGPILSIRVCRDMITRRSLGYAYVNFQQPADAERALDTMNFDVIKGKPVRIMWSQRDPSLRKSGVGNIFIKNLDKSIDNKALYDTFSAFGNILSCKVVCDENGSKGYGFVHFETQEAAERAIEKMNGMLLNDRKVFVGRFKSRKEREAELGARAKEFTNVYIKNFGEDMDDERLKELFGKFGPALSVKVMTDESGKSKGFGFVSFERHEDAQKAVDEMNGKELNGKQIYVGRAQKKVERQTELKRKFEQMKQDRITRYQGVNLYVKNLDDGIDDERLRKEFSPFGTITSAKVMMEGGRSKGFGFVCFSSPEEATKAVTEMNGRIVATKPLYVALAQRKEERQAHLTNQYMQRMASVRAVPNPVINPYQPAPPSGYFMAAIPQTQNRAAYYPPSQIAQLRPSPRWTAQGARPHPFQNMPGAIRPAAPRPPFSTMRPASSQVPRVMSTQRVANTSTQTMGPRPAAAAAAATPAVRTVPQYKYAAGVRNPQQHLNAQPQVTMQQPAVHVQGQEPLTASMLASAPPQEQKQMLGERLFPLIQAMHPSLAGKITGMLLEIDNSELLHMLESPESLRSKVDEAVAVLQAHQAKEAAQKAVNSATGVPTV

cytosolic poly(A) binding protein PABPC1 (from UniProt P29341 1-636)
binding: binds
